Data as given in PubChem BioAssay AID1508588 (Peter MacCallum Cancer Centre, 2020).

Assay: 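Knock-downs boosting vemurafenib effects on melanoma cell growth or lactate release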 (primary screen)
System: human WM266.4 melanoma cells (BRAF V600 mutant)
Knock-down reagent: siRNA pool against human genes, 40 nM
Time to read-out: 96 h from transfection to read-out
Challenge: vemurafenib 300 nM (about IC25), added 48 h after transfection, for 48 h; comparison arm got DMSO vehicle only
Read-out: 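Cell gain (DAPI nuclei at end minus before drug, mean of two replicates) and medium lactate by absorbance per cell, both as ratio to non-targeting siRNA, also grouped into fold-change classes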
Direction: cell gain with vemurafenib: higher = more cell gain than with non-targeting siRNA; lactate per cell with vemurafenib: higher = more lactate made per cell
Active means: 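a knock-down counts as enhancing when its fold-change classes with vehicle and with vemurafenib, taken together, show a stronger drug effect on cell gain or lactate per cell; exact class pairs not stated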
Calls: active = enhances vemurafenib effect; inactive = no enhancement seen
The deposit covers about 18,000 reagents; this is a random part of them. Of all reagents, 790 (4.4%) got an active call. 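Calls rest on a combination of fold-change classes in drug and vehicle arms, not all shown here.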 Entries without a mark were called inactive.

| gene knocked down | cell gain with vemurafenib | lactate per cell with vemurafenib |
| --- | --- | --- |
| GRM3 (glutamate metabotropic receptor 3) | 0.85 | 0.55 |
| CCDC117 (coiled-coil domain containing 117) | 0.71 | 1.11 |
| MEIS2 (Meis homeobox 2) | 0.92 | 0.84 |
| TMPPE (transmembrane protein with metallophosphoesterase domain) | 0.3 (active) | 0.42 |
| CUTC (cutC copper transporter) | 0.56 | 0.94 |
| ZFHX3 (zinc finger homeobox 3) | 0.79 | 1.07 |
| MYH8 (myosin heavy chain 8) | 0.77 | 0.83 |
| LRRC4B (leucine rich repeat containing 4B) | 0.57 | 1.98 |
| HMX2 (H6 family homeobox 2) | 0.65 | 1.7 |
| IQGAP2 (IQ motif containing GTPase activating protein 2) | 0.15 (active) | 1.35 |
| OR8U3 (olfactory receptor family 8 subfamily U member 3) | 0.27 | 0.94 |
| CSNK1D (casein kinase 1 delta) | 0.61 | 0.64 |
| SLC66A2 | 0.78 | 1.25 |
| PRORP (protein only RNase P catalytic subunit) | 1.05 | 0.38 |
| SLC39A8 | 0.28 (active) | 0.4 |
| BLNK (B cell linker) | 0.31 | 0.98 |
| FAT1 (FAT atypical cadherin 1) | 0.85 | 0.86 |
| FAM220A (family with sequence similarity 220 member A) | 0.6 | 1.44 |
| CHD8 (chromodomain helicase DNA binding protein 8) | 0.33 (active) | 0.7 |
| ZNF623 (zinc finger protein 623) | 0.47 | 0.98 |
| LRRC3 (leucine rich repeat containing 3) | 0.61 | 0.4 |
| PRKAR2A | 0.43 | 1.04 |
| LYZL4 (lysozyme like 4) | 0.45 | 0.36 |
| VWA5A (von Willebrand factor A domain containing 5A) | -0.12 | 1.9 |
| DENND6B (DENN domain containing 6B) | 0.25 | 0.97 |
| CES5A (carboxylesterase 5A) | 0.83 | 0.95 |
| HELZ2 (helicase with zinc finger 2) | 0.58 | 1.48 |
| LZTS3 (leucine zipper tumor suppressor family member 3) | 0.52 (active) | 0.38 |
| FRRS1 (ferric chelate reductase 1) | 0.44 | 0.94 |
| BCL2L2 (BCL2 like 2) | 0.81 | 0.58 |
| RSPO2 (R-spondin 2) | 0.73 | 0.55 |
| PGLYRP2 (peptidoglycan recognition protein 2) | 0.42 | 1.32 |
| NME7 (NME/NM23 family member 7) | 0.91 | 0.56 |
| KLHL36 (kelch like family member 36) | 0.74 | 0.94 |
| ENTPD8 (ectonucleoside triphosphate diphosphohydrolase 8) | 0.83 | 0.88 |
| GPR78 (G protein-coupled receptor 78) | 0.94 | 0.72 |
| PPP2R2B (protein phosphatase 2 regulatory subunit Bbeta) | 0.89 | 0.72 |
| ATP8B4 (ATPase phospholipid transporting 8B4 (putative)) | 0.74 | 0.75 |
| PPT1 (palmitoyl-protein thioesterase 1) | 1.15 | 0.6 |
| PTPN18 (protein tyrosine phosphatase non-receptor type 18) | 0.76 | 0.91 |
| FHIP1B (FHF complex subunit HOOK interacting protein 1B) | 0.12 | 1.75 |
| SLC25A5 | 1.33 | 1.12 |
| RADX (RPA1 related single stranded DNA binding protein, X-linked) | 1.09 | 0.94 |
| PNPO (pyridoxamine 5'-phosphate oxidase) | 0.8 | 1.32 |
| ZNF558 (zinc finger protein 558) | 1.06 | 0.68 |
| STON1-GTF2A1L (STON1-GTF2A1L readthrough) | 0.68 | 0.76 |
| DPYD (dihydropyrimidine dehydrogenase) | 0.9 | 0.5 |
| ECE1 (endothelin converting enzyme 1) | 0.26 | 0.82 |
| ZNF35 (zinc finger protein 35) | 0.56 | 0.6 |
| MAST4 | 0.79 | 1.02 |
| TAC4 (tachykinin precursor 4) | 1.02 | 1.48 |
| SNX15 (sorting nexin 15) | 0.94 | 0.56 |
| HSPA4L (heat shock protein family A (Hsp70) member 4 like) | 1.03 | 1.06 |

Next part; the last 12 above are carried over.
| gene knocked down | cell gain with vemurafenib | lactate per cell with vemurafenib |
| --- | --- | --- |
| SLC25A5 | 1.33 | 1.12 |
| RADX (RPA1 related single stranded DNA binding protein, X-linked) | 1.09 | 0.94 |
| PNPO (pyridoxamine 5'-phosphate oxidase) | 0.8 | 1.32 |
| ZNF558 (zinc finger protein 558) | 1.06 | 0.68 |
| STON1-GTF2A1L (STON1-GTF2A1L readthrough) | 0.68 | 0.76 |
| DPYD (dihydropyrimidine dehydrogenase) | 0.9 | 0.5 |
| ECE1 (endothelin converting enzyme 1) | 0.26 | 0.82 |
| ZNF35 (zinc finger protein 35) | 0.56 | 0.6 |
| MAST4 | 0.79 | 1.02 |
| TAC4 (tachykinin precursor 4) | 1.02 | 1.48 |
| SNX15 (sorting nexin 15) | 0.94 | 0.56 |
| HSPA4L (heat shock protein family A (Hsp70) member 4 like) | 1.03 | 1.06 |
| ZNF473 (zinc finger protein 473) | 0.23 | 2.26 |
| SPHAR (retired record) | 0.46 | 1.01 |
| DTYMK (deoxythymidylate kinase) | 0.76 | 1.16 |
| ERCC4 (ERCC excision repair 4, endonuclease catalytic subunit) | 0.27 | 0.8 |
| SLC25A37 | 0.39 | 0.73 |
| ACTN4 (actinin alpha 4) | 0.47 | 0.95 |
| DNAJB14 (DnaJ heat shock protein family (Hsp40) member B14) | 0.85 | 0.84 |
| ELN (elastin) | 0.7 | 1.4 |
| KIDINS220 (kinase D interacting substrate 220) | 0.49 | 0.96 |
| FANCA (FA complementation group A) | 0.45 | 0.92 |
| BCL6B (BCL6B transcription repressor) | 0.51 | 1.1 |
| GMEB1 (glucocorticoid modulatory element binding protein 1) | -0.03 | 2.58 |
| NPNT (nephronectin) | 0.92 | 0.84 |
| MGAT5 | 0.77 | 0.67 |
| KRTAP27-1 (keratin associated protein 27-1) | 0.4 | 1.52 |
| PRSS48 (serine protease 48) | 0.64 | 0.92 |
| SP140L (SP140 like nuclear body protein) | 0.96 | 0.38 |
| TULP3 (TUB like protein 3) | 1 | 0.78 |
| ABCA6 (ATP binding cassette subfamily A member 6) | 0.89 (active) | 0.56 |
| F12 (coagulation factor XII) | 0.61 | 1.27 |
| BANF1 (barrier to autointegration nuclear assembly factor 1) | 0.45 | 1.42 |
| MRFAP1 (Morf4 family associated protein 1) | 0.87 | 0.6 |
| PLPP5 (phospholipid phosphatase 5) | 0.72 | 0.55 |
| PER2 (period circadian regulator 2) | 0.47 | 0.62 |
| ABCB8 (ATP binding cassette subfamily B member 8) | 1.01 | 0.4 |
| AGO3 (argonaute RISC catalytic component 3) | 1.11 | 1.09 |
| ARHGEF7 (Rho guanine nucleotide exchange factor 7) | 0.51 | 1.62 |
| LRRC61 (leucine rich repeat containing 61) | -0.17 | 3.33 |
| NDUFS3 (NADH:ubiquinone oxidoreductase core subunit S3) | 0 | 3.12 |
| SLC25A24 | 0.84 | 0.52 |
| CCDC134 (coiled-coil domain containing 134) | 0.2 | 1.2 |
